Experimental data: publication doi:10.1101/2021.08.25.457671
Where a chain is given by its changes, count along the chain named. No constants are given. Whether binding was seen depends on the method and setting. In cells and extracts the contact can be indirect. Some binding calls cover weakened binding; strength is not graded here. For part of these data: Sequences can lack the tags named with a protein.

Protein sequences, listed by entry. Tags and fused reporters are not part of them. Lines headed by an entry give the natural chain unless they say otherwise; changes in a name come on top.
UniProt Q9H081, whole entry: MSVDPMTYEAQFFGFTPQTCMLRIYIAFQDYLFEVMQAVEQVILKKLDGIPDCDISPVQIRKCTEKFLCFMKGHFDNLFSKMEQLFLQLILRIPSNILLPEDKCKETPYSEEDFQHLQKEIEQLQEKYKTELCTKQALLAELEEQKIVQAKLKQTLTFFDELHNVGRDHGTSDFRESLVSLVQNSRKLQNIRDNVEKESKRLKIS
UniProt P54198, whole entry: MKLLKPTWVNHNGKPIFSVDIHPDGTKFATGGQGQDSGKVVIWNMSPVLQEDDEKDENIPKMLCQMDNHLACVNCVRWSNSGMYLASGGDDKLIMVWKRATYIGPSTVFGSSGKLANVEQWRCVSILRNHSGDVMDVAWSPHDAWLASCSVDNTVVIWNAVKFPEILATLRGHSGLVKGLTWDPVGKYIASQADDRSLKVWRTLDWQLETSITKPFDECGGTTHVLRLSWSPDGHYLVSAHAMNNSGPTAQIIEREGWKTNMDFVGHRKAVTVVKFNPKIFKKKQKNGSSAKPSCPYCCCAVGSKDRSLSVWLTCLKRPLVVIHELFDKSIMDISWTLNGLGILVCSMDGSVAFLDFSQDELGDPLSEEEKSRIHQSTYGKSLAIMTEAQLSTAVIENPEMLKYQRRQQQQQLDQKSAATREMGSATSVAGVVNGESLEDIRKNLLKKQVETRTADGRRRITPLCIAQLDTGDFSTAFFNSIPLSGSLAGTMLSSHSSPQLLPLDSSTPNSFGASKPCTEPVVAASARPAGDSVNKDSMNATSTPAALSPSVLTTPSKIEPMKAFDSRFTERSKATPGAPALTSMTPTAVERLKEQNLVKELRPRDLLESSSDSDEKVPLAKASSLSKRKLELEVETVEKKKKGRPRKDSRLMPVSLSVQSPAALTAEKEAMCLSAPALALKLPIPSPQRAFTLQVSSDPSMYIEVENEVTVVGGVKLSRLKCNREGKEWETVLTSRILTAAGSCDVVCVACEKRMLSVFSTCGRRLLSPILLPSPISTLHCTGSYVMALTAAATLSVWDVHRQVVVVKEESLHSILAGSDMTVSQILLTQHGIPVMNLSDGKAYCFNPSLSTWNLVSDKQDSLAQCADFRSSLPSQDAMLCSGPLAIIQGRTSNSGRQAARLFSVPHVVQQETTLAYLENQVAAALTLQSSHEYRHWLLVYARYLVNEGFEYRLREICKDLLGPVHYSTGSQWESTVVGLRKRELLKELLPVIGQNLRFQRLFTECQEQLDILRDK
UniProt P25491, whole entry: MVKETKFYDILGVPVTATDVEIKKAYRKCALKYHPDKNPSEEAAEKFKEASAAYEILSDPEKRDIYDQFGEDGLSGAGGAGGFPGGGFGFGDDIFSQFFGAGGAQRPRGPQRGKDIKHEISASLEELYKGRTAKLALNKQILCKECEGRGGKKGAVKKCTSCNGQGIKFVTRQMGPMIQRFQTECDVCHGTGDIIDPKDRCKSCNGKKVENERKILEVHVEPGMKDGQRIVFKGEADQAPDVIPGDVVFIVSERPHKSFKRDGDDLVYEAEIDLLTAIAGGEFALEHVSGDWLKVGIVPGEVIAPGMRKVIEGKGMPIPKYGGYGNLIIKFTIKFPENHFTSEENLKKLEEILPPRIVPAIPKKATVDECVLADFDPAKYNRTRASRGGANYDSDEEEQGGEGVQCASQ
UniProt Q92598, whole entry: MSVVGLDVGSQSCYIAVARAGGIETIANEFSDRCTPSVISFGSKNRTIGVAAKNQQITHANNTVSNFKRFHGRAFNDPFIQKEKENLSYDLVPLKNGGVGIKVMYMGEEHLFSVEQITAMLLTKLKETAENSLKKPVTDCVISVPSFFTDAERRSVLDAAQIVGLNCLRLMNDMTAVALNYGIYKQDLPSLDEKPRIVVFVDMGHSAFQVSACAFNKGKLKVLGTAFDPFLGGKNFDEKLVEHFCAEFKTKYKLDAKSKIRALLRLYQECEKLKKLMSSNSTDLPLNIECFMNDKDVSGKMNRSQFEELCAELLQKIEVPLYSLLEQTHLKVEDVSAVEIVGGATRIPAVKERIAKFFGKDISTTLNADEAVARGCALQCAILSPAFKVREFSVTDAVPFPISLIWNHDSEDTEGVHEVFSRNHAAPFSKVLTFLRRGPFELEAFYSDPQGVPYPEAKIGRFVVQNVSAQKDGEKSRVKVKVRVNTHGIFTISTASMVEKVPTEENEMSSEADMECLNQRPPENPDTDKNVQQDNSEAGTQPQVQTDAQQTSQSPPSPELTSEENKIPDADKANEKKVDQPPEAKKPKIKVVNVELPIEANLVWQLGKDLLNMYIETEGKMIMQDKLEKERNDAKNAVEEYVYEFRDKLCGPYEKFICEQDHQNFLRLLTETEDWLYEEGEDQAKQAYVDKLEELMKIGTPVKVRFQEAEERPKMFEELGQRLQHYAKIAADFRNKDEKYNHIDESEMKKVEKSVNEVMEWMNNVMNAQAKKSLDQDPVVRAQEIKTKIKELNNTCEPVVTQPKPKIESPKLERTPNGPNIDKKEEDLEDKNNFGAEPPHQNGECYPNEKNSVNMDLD
UniProt P11142, whole entry: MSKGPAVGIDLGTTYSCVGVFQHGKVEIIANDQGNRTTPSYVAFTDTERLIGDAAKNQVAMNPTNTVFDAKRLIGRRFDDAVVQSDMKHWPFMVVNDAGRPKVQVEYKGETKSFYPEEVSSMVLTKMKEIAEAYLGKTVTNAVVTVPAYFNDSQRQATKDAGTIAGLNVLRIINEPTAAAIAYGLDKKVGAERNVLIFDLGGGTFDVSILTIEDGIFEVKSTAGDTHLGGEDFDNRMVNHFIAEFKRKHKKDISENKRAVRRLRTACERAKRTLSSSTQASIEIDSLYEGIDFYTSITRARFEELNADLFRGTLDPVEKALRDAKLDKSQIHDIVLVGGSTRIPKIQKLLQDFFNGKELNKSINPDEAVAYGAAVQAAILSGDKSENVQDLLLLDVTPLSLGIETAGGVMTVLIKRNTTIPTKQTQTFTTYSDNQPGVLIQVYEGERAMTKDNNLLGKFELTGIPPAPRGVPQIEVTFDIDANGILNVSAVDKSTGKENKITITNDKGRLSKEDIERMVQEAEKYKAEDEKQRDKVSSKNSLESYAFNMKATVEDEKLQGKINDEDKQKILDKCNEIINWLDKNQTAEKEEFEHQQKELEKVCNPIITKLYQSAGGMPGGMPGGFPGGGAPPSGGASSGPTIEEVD

Columns and labels:
[1] = target: FLAG-Ssa1 V435F (substrate-binding deficient mutant) (budding yeast) (UniProt P10591); assay: co-IP
[2] = target: T1, Ste11 R305A (non-methylatable mutant) (budding yeast) (UniProt P23561); assay: co-IP
T1 sequence: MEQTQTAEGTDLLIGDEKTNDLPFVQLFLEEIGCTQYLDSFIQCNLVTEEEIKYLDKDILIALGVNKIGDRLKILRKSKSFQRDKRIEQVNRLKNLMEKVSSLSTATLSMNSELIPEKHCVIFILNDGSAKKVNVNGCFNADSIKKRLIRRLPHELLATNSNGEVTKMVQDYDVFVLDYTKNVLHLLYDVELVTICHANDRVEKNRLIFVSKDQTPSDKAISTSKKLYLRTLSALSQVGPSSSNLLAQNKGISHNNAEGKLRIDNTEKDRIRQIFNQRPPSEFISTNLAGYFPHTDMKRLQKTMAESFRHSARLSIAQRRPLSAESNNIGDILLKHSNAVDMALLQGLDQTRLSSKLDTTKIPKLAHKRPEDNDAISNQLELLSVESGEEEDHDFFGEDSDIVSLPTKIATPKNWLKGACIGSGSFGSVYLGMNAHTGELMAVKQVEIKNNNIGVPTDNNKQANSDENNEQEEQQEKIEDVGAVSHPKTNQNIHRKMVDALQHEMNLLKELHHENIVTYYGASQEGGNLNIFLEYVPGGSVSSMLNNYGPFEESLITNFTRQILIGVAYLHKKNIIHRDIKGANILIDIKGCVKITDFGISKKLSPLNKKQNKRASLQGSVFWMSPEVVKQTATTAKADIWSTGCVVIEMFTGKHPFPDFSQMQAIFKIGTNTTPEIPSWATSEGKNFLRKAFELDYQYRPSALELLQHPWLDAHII

[3] = target: Ssa1, FLAG-tagged and HA-tagged constructs expressed together in yeast (budding yeast) (UniProt P10591); assay: co-IP
[4] = target: T2, HA-tagged Sse1 (budding yeast) (UniProt P32589); assay: co-IP
T2 sequence: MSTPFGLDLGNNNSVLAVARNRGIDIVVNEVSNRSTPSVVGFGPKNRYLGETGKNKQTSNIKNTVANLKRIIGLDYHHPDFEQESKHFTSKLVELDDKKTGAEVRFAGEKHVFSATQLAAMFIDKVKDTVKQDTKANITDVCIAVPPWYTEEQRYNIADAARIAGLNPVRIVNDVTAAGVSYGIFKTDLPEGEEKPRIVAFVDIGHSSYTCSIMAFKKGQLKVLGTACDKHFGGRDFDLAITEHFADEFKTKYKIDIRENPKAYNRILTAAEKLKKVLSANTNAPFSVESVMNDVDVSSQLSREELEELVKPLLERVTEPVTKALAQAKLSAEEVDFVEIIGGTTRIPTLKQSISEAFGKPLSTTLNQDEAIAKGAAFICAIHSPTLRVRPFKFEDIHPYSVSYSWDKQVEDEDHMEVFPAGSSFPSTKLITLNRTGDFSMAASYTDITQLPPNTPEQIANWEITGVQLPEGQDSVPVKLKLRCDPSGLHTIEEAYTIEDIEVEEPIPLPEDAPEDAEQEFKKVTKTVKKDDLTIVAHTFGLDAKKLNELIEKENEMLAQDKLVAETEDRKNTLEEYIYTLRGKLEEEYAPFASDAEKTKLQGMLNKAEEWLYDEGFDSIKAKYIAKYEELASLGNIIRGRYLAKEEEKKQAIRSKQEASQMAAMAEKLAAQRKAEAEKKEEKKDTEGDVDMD

[5] = target: T3, Mtw1 (bait of the co-IP in yeast) (budding yeast) (UniProt P39731); assay: co-IP
T3 sequence: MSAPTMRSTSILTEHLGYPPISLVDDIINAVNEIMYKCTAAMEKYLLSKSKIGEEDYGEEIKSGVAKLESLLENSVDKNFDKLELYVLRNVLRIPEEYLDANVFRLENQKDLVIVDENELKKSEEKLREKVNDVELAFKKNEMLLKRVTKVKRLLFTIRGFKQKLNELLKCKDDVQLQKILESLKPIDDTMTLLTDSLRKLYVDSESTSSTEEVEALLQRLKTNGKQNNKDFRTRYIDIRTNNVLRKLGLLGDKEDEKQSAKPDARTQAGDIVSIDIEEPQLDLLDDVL

[6] = target: T4, HA-tagged Ura8 (budding yeast) (UniProt P38627); assay: co-IP
T4 sequence: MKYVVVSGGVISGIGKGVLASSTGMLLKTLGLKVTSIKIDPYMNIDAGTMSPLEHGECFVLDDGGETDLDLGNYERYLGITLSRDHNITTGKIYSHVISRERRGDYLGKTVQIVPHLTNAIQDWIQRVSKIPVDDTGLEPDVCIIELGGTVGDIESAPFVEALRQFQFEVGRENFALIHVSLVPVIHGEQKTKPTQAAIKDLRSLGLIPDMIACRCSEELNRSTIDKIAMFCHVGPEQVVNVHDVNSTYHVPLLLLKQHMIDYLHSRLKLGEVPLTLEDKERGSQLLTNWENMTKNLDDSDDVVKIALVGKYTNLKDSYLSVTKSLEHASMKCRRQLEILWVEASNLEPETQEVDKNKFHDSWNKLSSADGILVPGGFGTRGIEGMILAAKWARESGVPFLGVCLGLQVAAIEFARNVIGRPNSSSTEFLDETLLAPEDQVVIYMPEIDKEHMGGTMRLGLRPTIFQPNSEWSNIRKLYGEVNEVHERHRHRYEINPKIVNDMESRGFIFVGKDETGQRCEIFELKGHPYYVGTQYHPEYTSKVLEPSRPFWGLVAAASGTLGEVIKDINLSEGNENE

Hir2 (budding yeast) = Hir2 (budding yeast) (UniProt P32480); assay: co-IP
[7] = target: T5, Ste11 (immunoprecipitated from yeast) (budding yeast) (UniProt P23561); assay: co-IP
T5 sequence: T1 sequence with A305R

[8] = target: T6, HA-tagged Pcl7 (budding yeast) (UniProt P40186); assay: co-IP
T6 sequence: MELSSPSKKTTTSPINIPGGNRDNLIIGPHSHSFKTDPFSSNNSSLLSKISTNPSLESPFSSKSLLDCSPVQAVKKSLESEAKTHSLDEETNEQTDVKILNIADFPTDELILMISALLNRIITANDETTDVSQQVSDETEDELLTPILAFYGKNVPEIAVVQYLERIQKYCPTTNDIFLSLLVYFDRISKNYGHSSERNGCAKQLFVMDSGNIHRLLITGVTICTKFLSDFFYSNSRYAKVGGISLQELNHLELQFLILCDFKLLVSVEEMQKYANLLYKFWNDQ

[9] = target: HA-tagged Cct8 (budding yeast) (UniProt P47079); assay: co-IP
[10] = target: HIS-tagged Ssa1 (budding yeast) (UniProt P10591); assay: cross-linking
Mis12 = Mis12 (UniProt Q9H081); assay: co-IP
HA-HIRA (human) = HA-HIRA (human) (UniProt P54198); assay: co-IP
mammalian Lonp-1 = target: T7, mammalian Lonp-1 (UniProt P36776); assay: co-IP
T7 sequence: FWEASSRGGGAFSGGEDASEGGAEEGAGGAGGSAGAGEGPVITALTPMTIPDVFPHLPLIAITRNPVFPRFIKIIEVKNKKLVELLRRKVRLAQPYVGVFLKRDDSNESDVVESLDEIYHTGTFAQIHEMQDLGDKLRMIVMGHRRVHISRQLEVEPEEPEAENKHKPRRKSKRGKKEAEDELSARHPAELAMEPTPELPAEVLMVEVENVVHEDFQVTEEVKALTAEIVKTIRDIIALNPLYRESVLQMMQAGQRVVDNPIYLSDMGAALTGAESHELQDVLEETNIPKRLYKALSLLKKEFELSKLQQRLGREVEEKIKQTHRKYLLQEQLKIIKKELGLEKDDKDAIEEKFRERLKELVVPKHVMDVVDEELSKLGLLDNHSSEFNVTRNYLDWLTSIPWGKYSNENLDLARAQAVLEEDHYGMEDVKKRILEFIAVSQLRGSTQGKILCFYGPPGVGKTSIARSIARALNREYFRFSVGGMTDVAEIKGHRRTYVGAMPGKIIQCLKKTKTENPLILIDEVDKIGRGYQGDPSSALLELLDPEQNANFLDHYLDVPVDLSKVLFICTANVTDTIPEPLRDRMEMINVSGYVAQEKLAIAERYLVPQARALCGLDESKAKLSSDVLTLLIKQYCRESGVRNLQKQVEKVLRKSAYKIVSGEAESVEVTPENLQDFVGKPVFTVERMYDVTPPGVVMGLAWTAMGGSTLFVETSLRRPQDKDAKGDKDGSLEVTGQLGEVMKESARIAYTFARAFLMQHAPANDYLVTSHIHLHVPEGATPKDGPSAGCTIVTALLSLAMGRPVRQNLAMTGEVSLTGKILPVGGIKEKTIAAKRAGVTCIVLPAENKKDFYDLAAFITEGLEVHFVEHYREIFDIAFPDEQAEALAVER

Measured: binding

Ydj1 (from UniProt P25491 1-409)
not listed: [10] | Mis12 | HA-HIRA (human) | mammalian Lonp-1
binds: all other assays above

Hir2 (from UniProt P32480 1-875)
binds: [10]

Hsp82 (from UniProt P02829 1-709)
binds: [4] | [5] | [6] | Hir2 (budding yeast) | [8] | [9]

Hsp110 (from UniProt Q92598 1-858)
binds: Mis12 | HA-HIRA (human)

Cct8 found by mass spectrometry with HIS-Ssa1 (from UniProt P47079 1-568)
binds: [10]

DNAJA1 (from UniProt P31689 1-397)
binds: mammalian Lonp-1 | Mis12 | HA-HIRA (human)

Ssa1, FLAG-tagged and HA-tagged constructs expressed together in yeast (from UniProt P10591 1-642)
binds: [1]

Hsc70 (from UniProt P11142 1-646)
binds: mammalian Lonp-1 | Mis12 | HA-HIRA (human)
